Source: doi:10.1101/2020.01.12.903369
No constants are given. Whether binding was seen depends on the method and setting. Binding seen in cells or lysates may run through a third protein. Some binding calls cover weakened binding; strength is not graded here.

Columns and labels:
Experiment in all cases: co-IP
Details in all cases: remark: other sources report otherwise
HA-tagged MCL1, Q07820 = target: HA-tagged MCL1, Q07820
[1] = target: MCL1 (human (endogenous in LNCaP)), Q07820
[2] = target: MCL1 (human (endogenous in LNCaP)), Q07820; remark: listed apart in the source

- binding (HA-tagged MCL1, Q07820): binds
- binding [1]: binds
- binding [2]: binds
B1: NOXA, Q13794 1-54 (protein)
chain: MPGKKARKNAQPSPARAPAELEVECATQLRRFGDKLNFRQKLLNLISKLFCSGT
